Source: the supplement of paper PMC10735217
Where a name gives a salt, the structure may show the parent alone. This is one part of the list. This data set is noisy: repeats of one test often differ as much as different tests do.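 In a drug-repurposing library screen, luminescence reads luciferase driven by eight TEAD-binding elements, stably integrated into human kidney-derived cells. Compounds scoring over five robust Z scores above the plate mean are called hits.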

Test system: HEK293A TEAD-LUC reporter
Experiment: TEAD-luciferase reporter activity (YAP activation), robust Z score vs plate; higher = stronger YAP/TEAD activation
Conditions: 24 h

Structure (SMILES) | TEAD-luciferase reporter activity (compound concentration: 200 nM) | TEAD-luciferase reporter activity (compound concentration: 2 uM) | TEAD-luciferase reporter activity (compound concentration: 10 uM)
CC(C)=CCOc1cc(NC(=S)c2ccsc2)ccc1Cl | inactive: 0.299 | inactive: -0.81 | inactive: 0.0776
Cc1cc(C(=O)NOCCO)c(Nc2ccc(I)cc2F)n(C)c1=O | inactive: -0.682 | inactive: -0.0757 | inactive: -0.332
CCN1CCC(CC(NC(=O)c2ccc([N+](=O)[O-])cc2)c2ccc(F)cc2)CC1 (centres undefined) [Niferidil] | inactive: -1.17 | inactive: -1.21 | inactive: 1.23
CCCCS(=O)(=O)N[C@@H](CNC(=O)c1cc2n(n1)CCN(CCC1CCNCC1)C2=O)C(=O)O | inactive: 0.381 | – | inactive: -0.143
CC1=C(c2cc(-n3ccnc3)cs2)NNC(=O)C1 [Motapizone] | inactive: 0.507 | inactive: -1.47 | inactive: -0.48
CC[C@]1(O)C[C@H]2CN(CCc3c([nH]c4ccccc34)[C@@](C(=O)OC)(c3cc4c(cc3OC)N(C)[C@H]3[C@@](O)(C(N)=O)[C@H](O)[C@]5(CC)C=CCN6CC[C@]43[C@@H]65)C2)C1 [vindesine] | – | inactive: 3.97 | –
CC[C@]1(O)C[C@H]2CN(CCc3c([nH]c4ccccc34)[C@@](C(=O)OC)(c3cc4c(cc3OC)N(C)[C@H]3[C@@](O)(C(N)=O)[C@H](O)[C@]5(CC)C=CCN6CC[C@]43[C@@H]65)C2)C1 | inactive: 4.66 | – | active: 5.99
O=C1CC2CCCC(C1)N2C(=O)c1cccc(Cl)c1 | inactive: 1.11 | – | inactive: 1.17
CC(C)C[C@H](NC(=O)[C@H](CC(C)C)NC(=O)[C@H](Cc1ccccc1)NC(=O)[C@@H](N)CO)C(=O)N[C@@H](CCCNC(=N)N)C(=O)N[C@@H](CC(N)=O)C(=O)N1CCC[C@H]1C(=O)N[C@@H](CC(N)=O)C(=O)N[C@@H](CC(=O)O)C(=O)N[C@@H](CCCCN)C(=O)N[C@@H](Cc1ccc(O)cc1)C(=O)N[C@@H](CCC(=O)O)C(=O)N1CCC[C@H]1C(=O)N[C@@H](Cc1ccccc1)C(=O)O | inactive: 0.0427 | inactive: 0.603 | inactive: -2.39
CC(C)NCC(O)c1ccc2ccccc2c1 (centres undefined) | inactive: 2.7 | inactive: -1.19 | inactive: -0.698
CCOP(=O)(CCCCCCOc1ccc(OC)c(F)c1)OCC | inactive: -1.66 | inactive: 1.39 | inactive: 0.381
CN1CCN(NC(=O)CN2CCN(C(=O)c3cc(C(F)(F)F)cc(C(F)(F)F)c3)[C@H](Cc3c[nH]c4ccccc34)C2)CC1 | inactive: 2.25 | inactive: -1.11 | inactive: -0.829
CCc1c(C)nc2cccc(C)n2c1=O [Chinoin-150] | active: 7.34 | inactive: 0.202 | inactive: 0.119
O=C(NCCNCC(O)COc1ccc(O)cc1)N1CCOCC1 (centres undefined) [Xamoterol hemifumarate] | inactive: -0.439 | – | inactive: -0.61
O=C(NCCNCC(O)COc1ccc(O)cc1)N1CCOCC1 (centres undefined) [xamoterol fumarate] | – | inactive: -1.79 | –
Cc1cc(N2CCN([C@@H]3CN[C@H](C(=O)N4CCSC4)C3)CC2)n(-c2ccccc2)n1 [teneligliptin] | – | inactive: 1.44 | –
Cc1cc(N2CCN([C@@H]3CN[C@H](C(=O)N4CCSC4)C3)CC2)n(-c2ccccc2)n1 [Teneligliptin Hydrobromide] | inactive: -0.155 | – | inactive: -0.519
O=C1CCC2(CCC(=O)c3cc(Cl)ccc32)C(=O)N1 (centres undefined) | inactive: -1.04 | inactive: 1.29 | inactive: 1.21
Nc1nc(N)c2nc(CN3CCSc4cc(C(=O)N[C@@H](CCCC(=O)O)C(=O)O)ccc43)cnc2n1 | inactive: -1.61 | inactive: 0.107 | inactive: -0.987
CCN1CCN(c2ccc(Nc3cc(N(C)C(=O)Nc4c(Cl)c(OC)cc(OC)c4Cl)ncn3)cc2)CC1 [Infigratinib] | inactive: -1.2 | inactive: -0.241 | inactive: -1.05
CCOC(=O)[C@H]1O[C@@H]1C(=O)N[C@@H](CC(C)C)C(=O)NCCC(C)C [Aloxistatin] | – | inactive: -0.984 | –
CCOC(=O)[C@H]1O[C@@H]1C(=O)N[C@@H](CC(C)C)C(=O)NCCC(C)C | inactive: -1.62 | – | inactive: -0.128
CC(=O)NCCC(=O)N1Cc2ccccc2CC2(CCCCN2CC2CCCC2)C1 (centres undefined) | inactive: -1.48 | – | inactive: 1.45
C[C@H](CSC(=O)[C@@H](C)NC(=O)C1CCCCC1)C(=O)N1CCC[C@H]1C(=O)O [Moveltipril] | inactive: 0.16 | inactive: 0.846 | inactive: 1.51
N#CC(c1ccc(F)cc1)c1c(Cl)cc(-n2ncc(=O)[nH]c2=O)cc1Cl (centres undefined) [Letrazuril] | inactive: 1.34 | inactive: -0.255 | inactive: -0.723

An excerpt of these results, as a markdown table:

| Structure (SMILES) | TEAD-luciferase reporter activity (compound concentration: 200 nM) | TEAD-luciferase reporter activity (compound concentration: 2 uM) | TEAD-luciferase reporter activity (compound concentration: 10 uM) |
| --- | --- | --- | --- |
| CCOP(=O)(CCCCCCOc1ccc(OC)c(F)c1)OCC | inactive: -1.66 | inactive: 1.39 | inactive: 0.381 |
| O=C1CCC2(CCC(=O)c3cc(Cl)ccc32)C(=O)N1 (centres undefined) | inactive: -1.04 | inactive: 1.29 | inactive: 1.21 |

Next part.

Structure (SMILES) | TEAD-luciferase reporter activity (compound concentration: 200 nM) | TEAD-luciferase reporter activity (compound concentration: 2 uM) | TEAD-luciferase reporter activity (compound concentration: 10 uM)
Nc1ccc(C[C@H](NS(=O)(=O)c2cnccc2N[C@H](CO)Cc2ccccc2)C(=O)N2CCC(CCF)CC2)cc1 | inactive: 0.327 | inactive: 1.01 | inactive: 0.0596
O=C(O)c1cnc2n1CCc1ccccc1C2=C1CCN(CCc2ccc(OCc3ccc4ccccc4n3)cc2)CC1 | inactive: -0.894 | inactive: -0.51 | inactive: 0.873
O=C(OCCN1CCCCC1)c1c[nH]c2ccccc12 | inactive: -0.738 | inactive: 2.43 | active: 9.48
COc1ccc(C(N)=O)cc1C(=O)NCc1cccnc1 | inactive: 0.573 | inactive: -1.24 | inactive: 0.692
O=C(NC1CCN(c2nc3ncccc3o2)C1)C1CC1 (centres undefined) | inactive: 1.97 | – | inactive: -1.36
OC[C@H]1O[C@H]([S][Au])[C@H](O)[C@@H](O)[C@@H]1O [Aurothioglucose] | active: 5.35 | inactive: -0.282 | inactive: 3.52
COc1ccc(C)cc1NC(=O)Nc1nc2ccc(Nc3ncnc4cc(OCCCN5CCN(C)CC5)c(OC)cc34)cc2s1 | inactive: -1.64 | inactive: 0.924 | inactive: -0.855
CCCc1c(SCCCOc2ccc(C(C)=O)c(OCCCC(=O)O)c2CCC)ccc(C(C)=O)c1O [Tipelukast] | inactive: -2.26 | inactive: -0.246 | inactive: 2.64
CCCC[C@@H]1NC(=O)CCSSC[C@@H](C(N)=O)NC(=O)CNC(=O)[C@H](Cc2c[nH]c3ccccc23)NC(=O)[C@H](CCCNC(=N)N)NC(=O)[C@@H](Cc2ccc3ccccc3c2)NC(=O)[C@H](Cc2c[nH]cn2)NC(=O)[C@H](CCCNC(=N)N)NC1=O | inactive: -0.706 | inactive: -1.91 | inactive: -0.783
O=C(O)CC(c1ccc(OC2CCCC2)cc1)N1C(=O)c2ccccc2C1=O (centres undefined) | inactive: -2.15 | inactive: 0.764 | inactive: 1.08
CCCc1ccc(C(O)Cn2ccnc2)cc1 (centres undefined) | inactive: 0.0564 | inactive: -0.0234 | inactive: 2.42
CC(=O)O[C@]1(C(C)=O)CC[C@H]2[C@@H]3C=C(C)C4=CC(=O)CC[C@@H]4[C@H]3CC[C@@]21C [Nomegestrol acetate] | inactive: -0.579 | inactive: -0.136 | inactive: -1.06
CCCCc1ccc(CN(CC2CC2)S(C)(=O)=O)c(=O)n1Cc1ccc(-c2ccccc2-c2nn[nH]n2)cc1 | inactive: -0.846 | inactive: -0.974 | inactive: 2.35
Cc1nc(-c2cnn(C)c2-c2ccc(C(F)(F)F)cn2)c2c(N3CCC3)ncnn12 | inactive: -1.99 | inactive: -0.315 | inactive: 0.156
CC(C)(C)NC(=O)[C@@H]1CN(Cc2cccnc2)CCN1C[C@@H](O)C[C@H](Cc1ccccc1)C(=O)N[C@H]1c2ccccc2C[C@H]1O [Indinavir Sulfate] | inactive: 0.269 | inactive: 0.746 | inactive: -0.476
CC1=C(/C=C/C(C)=C/C=C/C(C)=C/C(=O)Oc2c(C)c(C)c3c(c2C)CC[C@@](C)(CCC[C@H](C)CCC[C@H](C)CCCC(C)C)O3)C(C)(C)CCC1 | – | inactive: -1.6 | –
CC1=C(/C=C/C(C)=C/C=C/C(C)=C/C(=O)Oc2c(C)c(C)c3c(c2C)CC[C@@](C)(CCC[C@H](C)CCC[C@H](C)CCCC(C)C)O3)C(C)(C)CCC1 [Tretinoin tocoferil] | inactive: -1.2 | – | inactive: 2.01
COc1ccc(-c2cc(=S)ss2)cc1 [anethole dithiolethione] | – | inactive: -0.64 | –
COc1ccc(-c2cc(=S)ss2)cc1 [Anethole dithiolethione] | inactive: 0.177 | inactive: -0.0771 | inactive: -0.557
CNCC(=O)O [Sarcosine] | inactive: -1.07 | inactive: -1.74 | inactive: -1.5
Cc1nc(NC(=O)N2CCC[C@H]2C(N)=O)sc1-c1ccnc(C(C)(C)C(F)(F)F)c1 [alpelisib] | inactive: -0.175 | inactive: -2.3 | inactive: -1.35
CCOC(=O)[C@H](CCSC)NC(=O)C(CSC(C)=O)Cc1ccccc1C (some centres undefined) | inactive: -1.33 | inactive: 0.152 | inactive: 0.705
NS(=O)(=O)c1cccc2c1c([N+](=O)[O-])cc1[nH]c(=O)c(=O)[nH]c12 | inactive: -2.05 | inactive: -0.262 | inactive: 2.06
O=C1c2ccccc2S(=O)(=O)N1CCCCN1CCN(c2ncccn2)CC1 [Ipsapirone] | inactive: -0.752 | inactive: -0.908 | inactive: -0.362
COc1cccc(C=O)c1O | inactive: -2 | inactive: -0.624 | inactive: 1.93
